Data source: PubChem BioAssay AID1671195 (Yale University, 2021)
Shown is a random part of about 22,000 deposited reagents. Of all reagents, about 1,510 (6.9%) got an active call. 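Active includes knockdowns raising or lowering LDL uptake; positive z-scores mean more uptake, negative mean less.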

- Aim: 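Knockdowns that increase or decrease uptake of fluorescent LDL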 (primary screen)
- Cells: human Huh7 hepatoma cells
- Reagent: siRNA pool against human genes, 18 nM
- Timing: about 2 to 2.5 days of knockdown, then 8 h LDL uptake
- Conditions: DiI-labelled LDL at 30 µg/ml for 8 h, in lipoprotein-deficient serum medium
- Read-out: 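Per-cell DiI-LDL intensity by automated imaging; well means scaled to the plate median and given as a robust z-score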
- Scale: robust z-score: higher = more LDL uptake after knockdown
- Hit rule: 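Active when two or more replicates show a robust z-score above 2 or below -2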

gene symbol,"robust z-score, replicate 1","robust z-score, replicate 2","robust z-score, replicate 3",Outcome
LINC00410,1.1,0.751,0.652,inactive
NR2F1-AS1,-0.698,-1.06,-1,inactive
WIZ,-0.931,-0.762,-0.661,inactive
ATF5,2.75,2.11,2.4,active
MGC16384 (retired record),-1.11,-1.03,-0.831,inactive
CARTPT,0.0528,-0.727,0.58,inactive
LOC393078,-0.773,-1.59,-1.5,inactive
PLEKHA8P1,5.01,4.49,0.522,active
NSMCE4A,-0.666,-0.323,0.00893,inactive
RSPH10B,-1.41,-1.15,-0.856,inactive
PTPRH,-0.614,-0.789,-0.475,inactive
SVOPL,-0.338,-0.666,0.585,inactive
SLC25A6P2,0.942,-0.0251,0.52,inactive
CDC42BPG,0.652,0.448,0.449,inactive
YBX3,0.555,0.889,0.541,inactive
SHISA4,-1.18,-0.605,-1.31,inactive
IGSF11,1.37,1.09,2.2,inactive
SLC2A12,1.28,0.797,1.78,inactive
TUBB2A,1.06,1.43,0.861,inactive
ZNF799,0.216,0.317,0.0594,inactive
RAB40B,0.301,-0.695,-0.7,inactive
PDCD5,1.41,-0.58,-0.122,inactive
KSR1,-0.638,-0.59,-0.587,inactive
TNIP3,-0.131,-0.683,-0.506,inactive
PRRG1,0.298,0.878,0.145,inactive
RSBN1,0.223,1.53,-0.391,inactive
TEDAR,-0.643,-0.543,-0.126,inactive
COPE,-0.244,-0.886,0.0645,inactive
GREB1,-0.885,-0.649,-2.09,inactive
SLC25A45,0.403,0.295,0.611,inactive
TRIM51FP,0.68,0.417,0.671,inactive
ICAM3,-0.0822,-0.347,-0.0888,inactive
ENTPD8,-2.05,-2.34,-2.74,active
LOC339306 (retired record),0.711,0.944,0.961,inactive
DPP7,0.455,0.0984,0.143,inactive
MAN1A1,-0.585,-0.534,-1.1,inactive
RFX3,0.894,0.88,0.824,inactive
FANCM,0.629,1.07,0.791,inactive
SCTR,0.869,0.82,1.28,inactive
SH3PXD2B,0.126,-0.081,-0.0367,inactive
TMPRSS11E,-0.445,-1,-0.828,inactive
RAB37,-0.277,-0.759,-0.957,inactive
LOC389071 (retired record),-1.38,-1.42,-1.5,inactive
PAQR7,-1.08,-0.391,-1,inactive
ZNF852,-0.542,-0.392,-0.381,inactive
LINC00272,0.0951,0.0969,-0.293,inactive
VAMP1,-0.153,-0.15,-0.133,inactive
ODAD2,-0.115,-0.493,-1.39,inactive
CAPZA1,0.83,2.25,0.483,inactive
DIS3L2,-0.297,-0.482,-0.77,inactive
PSME3,0.489,-0.356,-0.145,inactive
LOC389233 (retired record),0.24,0.0672,0.557,inactive
KRTAP19-3,-0.552,-0.748,-0.551,inactive
LOC441499 (retired record),-1.26,-1.02,-0.843,inactive
PMS2P2,-0.487,-0.969,0.0784,inactive
NUCB2,0.198,0.903,-0.954,inactive
TPM4,-0.0902,-1.1,-0.24,inactive
S100Z,0.151,-0.0122,0.0869,inactive
PPP3R1,0.993,3.12,0.961,inactive
PLCXD1,-0.438,-2.28,-0.737,inactive
PTGER2,-1.02,-0.632,-0.869,inactive
FBL,-0.0972,0.288,-0.1,inactive
FBXW10,2.08,0.858,0.445,inactive
SLC12A1,-1.76,-1.2,-1.13,inactive
CLDN20,-0.912,-0.621,-0.671,inactive
RGPD2,-0.545,-0.521,-0.616,inactive
TFAP2B,-1.24,-1.19,-0.927,inactive
THEM6,-0.621,-1.42,-0.0516,inactive
LOC442199 (retired record),0.928,-0.147,-0.0648,inactive
SLC9A9,0.481,-0.266,0.776,inactive
XPO4,0.923,0.128,1.28,inactive
RANBP2,-0.152,0.0607,-0.144,inactive
PAN3,-0.445,-0.806,-0.422,inactive
CBX4,1.28,0.16,1.33,inactive
SYTL4,2.28,1.54,1.29,inactive
XAGE1B,-0.557,-1.47,-1.27,inactive
PDIA6,-0.858,-0.595,-1.16,inactive
ABCC4,-0.0754,-0.0308,-0.23,inactive
ITGAD,0.348,-0.865,-1.02,inactive
LOC391345 (retired record),0.65,0.46,0.077,inactive
CKAP4,-2.55,-1.22,-2.23,active
MOS,-0.632,-0.22,-1.07,inactive
FAM222B,-0.153,-1.05,-1.12,inactive
FFAR4,-1.41,-0.65,-1.43,inactive
DXO,-1.67,-2.7,-1.96,active
HTR3D,-0.842,-0.936,-1.22,inactive
RGS17,-0.862,-1.42,-1.18,inactive

A run of entries taken from the entries so far:
gene symbol,"robust z-score, replicate 1","robust z-score, replicate 2","robust z-score, replicate 3",Outcome
PTPRH,-0.614,-0.789,-0.475,inactive
SVOPL,-0.338,-0.666,0.585,inactive
SLC25A6P2,0.942,-0.0251,0.52,inactive
CDC42BPG,0.652,0.448,0.449,inactive
